Assay results: publication doi:10.1101/221093
No constants are given. Whether binding was seen depends on the method and setting. In cells and extracts the contact can be indirect. Some results given as binding are weak or reduced against the parent protein; the word gives no strength.

Amino acid sequences for entries named in this document (tags omitted).
UniProt Q99496: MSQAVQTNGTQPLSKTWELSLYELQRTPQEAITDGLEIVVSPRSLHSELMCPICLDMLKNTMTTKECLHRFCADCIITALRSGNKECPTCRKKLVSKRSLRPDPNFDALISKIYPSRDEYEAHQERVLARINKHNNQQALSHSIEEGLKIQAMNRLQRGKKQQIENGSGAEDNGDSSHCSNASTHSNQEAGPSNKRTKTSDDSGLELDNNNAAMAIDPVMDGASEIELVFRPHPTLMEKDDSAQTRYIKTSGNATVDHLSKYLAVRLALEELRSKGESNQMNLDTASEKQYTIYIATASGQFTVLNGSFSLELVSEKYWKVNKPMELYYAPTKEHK
UniProt Q9BSM1: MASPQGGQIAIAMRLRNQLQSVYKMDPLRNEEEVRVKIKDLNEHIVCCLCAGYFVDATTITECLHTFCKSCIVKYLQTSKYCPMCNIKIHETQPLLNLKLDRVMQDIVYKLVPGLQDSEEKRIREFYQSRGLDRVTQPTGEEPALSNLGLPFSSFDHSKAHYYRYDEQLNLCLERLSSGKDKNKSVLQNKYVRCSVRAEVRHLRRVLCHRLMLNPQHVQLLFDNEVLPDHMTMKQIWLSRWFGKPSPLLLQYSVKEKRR
UniProt Q93009: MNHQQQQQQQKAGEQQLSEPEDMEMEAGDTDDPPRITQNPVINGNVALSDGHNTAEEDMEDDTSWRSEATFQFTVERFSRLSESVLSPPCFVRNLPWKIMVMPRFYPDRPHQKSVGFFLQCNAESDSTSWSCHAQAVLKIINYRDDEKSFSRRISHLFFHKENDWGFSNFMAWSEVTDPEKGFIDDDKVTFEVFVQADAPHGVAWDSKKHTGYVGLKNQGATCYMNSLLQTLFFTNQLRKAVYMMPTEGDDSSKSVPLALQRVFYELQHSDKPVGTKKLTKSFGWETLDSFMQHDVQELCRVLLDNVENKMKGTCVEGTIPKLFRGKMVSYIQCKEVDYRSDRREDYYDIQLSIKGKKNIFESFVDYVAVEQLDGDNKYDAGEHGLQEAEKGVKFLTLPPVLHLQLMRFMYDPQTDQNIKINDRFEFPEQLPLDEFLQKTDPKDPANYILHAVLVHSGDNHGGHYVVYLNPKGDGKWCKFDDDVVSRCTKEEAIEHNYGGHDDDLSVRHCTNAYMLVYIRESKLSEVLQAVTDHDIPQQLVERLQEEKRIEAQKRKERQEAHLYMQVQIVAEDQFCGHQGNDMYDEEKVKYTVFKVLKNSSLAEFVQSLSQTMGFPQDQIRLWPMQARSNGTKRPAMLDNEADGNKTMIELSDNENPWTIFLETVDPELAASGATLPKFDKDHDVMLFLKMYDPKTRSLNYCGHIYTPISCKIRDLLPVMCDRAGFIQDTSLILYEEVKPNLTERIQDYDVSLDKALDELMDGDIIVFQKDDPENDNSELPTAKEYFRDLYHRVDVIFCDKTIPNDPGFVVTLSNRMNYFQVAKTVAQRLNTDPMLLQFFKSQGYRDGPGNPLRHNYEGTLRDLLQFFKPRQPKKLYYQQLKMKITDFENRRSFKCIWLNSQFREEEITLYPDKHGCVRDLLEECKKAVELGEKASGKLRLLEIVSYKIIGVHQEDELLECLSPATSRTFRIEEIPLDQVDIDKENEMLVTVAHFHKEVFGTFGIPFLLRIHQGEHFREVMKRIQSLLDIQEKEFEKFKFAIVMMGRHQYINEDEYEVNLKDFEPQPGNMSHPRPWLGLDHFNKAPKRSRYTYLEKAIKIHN

Legend:
Test in all cases: co-IP
[1] = molecular target: T1, PCGF2 (bait of the pull out) (UniProt P35227)
T1 sequence: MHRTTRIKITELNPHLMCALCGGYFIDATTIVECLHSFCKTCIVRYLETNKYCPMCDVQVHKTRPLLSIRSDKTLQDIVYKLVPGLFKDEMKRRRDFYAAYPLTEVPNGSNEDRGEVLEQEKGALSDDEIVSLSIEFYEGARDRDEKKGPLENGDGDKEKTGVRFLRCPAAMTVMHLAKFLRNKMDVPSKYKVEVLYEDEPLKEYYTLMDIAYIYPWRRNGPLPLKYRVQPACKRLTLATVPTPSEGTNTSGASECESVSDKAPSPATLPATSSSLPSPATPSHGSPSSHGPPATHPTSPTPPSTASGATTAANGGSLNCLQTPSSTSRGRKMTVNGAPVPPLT

[2] = molecular target: EGFP-RING1B (UniProt Q99496)
[3] = molecular target: PCGF1-EGFP (UniProt Q9BSM1)

Substance	binding [1]	binding [2]	binding [3]
endogenous RING1B (from UniProt Q99496 1-336)	binds		
ubiquitin-specific protease 7 (USP7) (from UniProt Q93009 1-1102) (enzyme)		binds	binds
